{"sequences": {"note": "Protein sequences, listed by entry. Tags and fused reporters are not part of them.", "UniProt P62627": "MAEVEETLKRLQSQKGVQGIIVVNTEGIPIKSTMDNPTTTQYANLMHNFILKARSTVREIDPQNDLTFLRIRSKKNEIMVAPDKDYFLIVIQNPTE", "UniProt P97384": "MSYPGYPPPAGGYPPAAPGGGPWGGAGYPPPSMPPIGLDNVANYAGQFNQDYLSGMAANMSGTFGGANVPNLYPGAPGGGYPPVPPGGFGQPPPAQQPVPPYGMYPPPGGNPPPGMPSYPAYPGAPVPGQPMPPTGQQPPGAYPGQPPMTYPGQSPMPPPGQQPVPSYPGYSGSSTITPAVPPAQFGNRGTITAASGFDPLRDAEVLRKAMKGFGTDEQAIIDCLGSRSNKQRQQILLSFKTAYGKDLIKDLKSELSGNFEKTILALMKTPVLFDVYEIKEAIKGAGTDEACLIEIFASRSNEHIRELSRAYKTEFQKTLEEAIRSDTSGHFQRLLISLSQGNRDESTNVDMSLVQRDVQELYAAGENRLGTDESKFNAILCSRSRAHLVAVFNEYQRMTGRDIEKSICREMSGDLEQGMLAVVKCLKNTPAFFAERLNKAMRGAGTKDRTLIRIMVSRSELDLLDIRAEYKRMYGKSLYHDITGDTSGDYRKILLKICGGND"}, "source": "paper PMC10625159", "molecules": {"B1": {"name": "vacuolar protein sorting–associated protein VTA1 homolog (Vta1) (protein, UniProt Q9CR26 1-309)", "chain": "MAALAPLPPLPAQFKSIQHHLRTAQEHDKRDPVVAYYCRLYAMQTGMKIDSKTPECRKFLSKLMDQLEALKKQLGDNEAVTQEIVGCAHLENYALKMFLYADNEDRAGRFHKNMIKSFYTASLLIDVITVFGELTDENVKHRKYARWKATYIHNCLKNGETPQAGPVGIEEENDVEENEDVGATSLPTQPPQPSSSSAYDPSNLAPGSYSGIQIPPGAHAPANTPAEVPHSTGVTSNAVQPSPQTVPAAPAVDPDLYTASQGDIRLTPEDFARAQKYCKYAGSALQYEDVGTAVQNLQKALRLLTTGRE"}}, "key": {"[1]": {"target": "MnT–Dynlrb1 (flag-tagged miniTurbo fused to the N-terminus of dynein light chain roadblock 1), expressed in DRG neurons (mouse) (UniProt P62627)", "experiment": "proximity labelling; miniTurbo biotinylation in cultured DRG neurons (200 μM biotin, 2 h, 37 °C), streptavidin bead pulldown, LC–MS/MS; hits: abundance ratio ≥2 over MnT-control and p ≤0.05"}, "[2]": {"target": "MnT–Dynlrb1 (flag-tagged miniTurbo fused to the N-terminus of dynein light chain roadblock 1), expressed in DRG neurons (mouse) (UniProt P62627)", "experiment": "proximity labelling; miniTurbo biotinylation in cultured DRG neurons (200 μM biotin, 2 h, 37 °C), streptavidin bead pulldown, LC–MS/MS; hits: abundance ratio ≥2 over MnT-control and p ≤0.05", "remark": "listed apart in the source"}}, "note": "Read-outs that look alike come from different tables or passages of the source. No constants are given. Whether binding was seen depends on the method and setting. Binding seen in cells or lysates may run through a third protein. A yes stands for co-enrichment or nearness to the bait. Other partners may have been found."}
{"molecule": "annexin A11 (Anxa11) (from UniProt P97384 1-503)", "values": [{"measurement": "binding", "setting": "[1]", "result": "binds"}]}
{"molecule": "B1", "values": [{"measurement": "binding", "setting": "[2]", "result": "binds"}]}
